For the assay, the system named is P388 leukemia ip, CD2F1 mice, survival T/C. Put plainly: NCI In Vivo Anticancer Drug Screen. Data for tumor model P388 Leukemia (intraperitoneal) in CD2F1 (CDF1) mice. The settings on record: T/C endpoint: median survival time, higher T/C = longer survival.
Setting [1] is: dose: 100.0 mg/kg/injection, schedule: Q01DX005 (ip), vehicle: saline.
Setting [2] is: dose: 200.0 mg/kg/injection, schedule: Q01DX005 (ip), vehicle: saline.
[3] abbreviates: dose: 50.0 mg/kg/injection, schedule: Q01DX009 (ip), vehicle: saline with Tween-80.
[4] abbreviates: dose: 100.0 mg/kg/injection, schedule: Q01DX009 (ip), vehicle: saline with Tween-80.
Setting [5] is: dose: 200.0 mg/kg/injection, schedule: Q01DX009 (ip), vehicle: saline with Tween-80.
Setting [6] is: dose: 50.0 mg/kg/injection, schedule: Q01DX009 (ip), vehicle: saline.
Setting [7] is: dose: 100.0 mg/kg/injection, schedule: Q01DX009 (ip), vehicle: saline.
Setting [8] is: dose: 200.0 mg/kg/injection, schedule: Q01DX009 (ip), vehicle: saline.
Setting [9] is: dose: 100.0 mg/kg/injection, schedule: Q01DX009 (ip), vehicle: water.
The mark [10] stands for this setting: dose: 200.0 mg/kg/injection, schedule: Q01DX009 (ip), vehicle: water.

The list is a part of this screen's results and no random one: it gathers tests that were run many times, whatever their T/C, doses with no T/C, and many T/C values between a quarter and a half above the control. Further doses and runs are listed elsewhere. T/C: endpoint of the treated group in % of that of the vehicle group. Some doses have a count of surviving animals in place of a T/C: the source holds a T/C of zero for them, seemingly a mark for toxic or unscored doses. Some survivor counts are full or nearly so, which does not show that the dose was tolerated: survival well below the control is almost never listed, so the zero probably covers shortened survival too. Counts of survivors are from the toxicity check (mostly the fifth day) where no day follows; animals may have died later. Schedules are NCI's codes, read here as Q, the interval in days (D) or hours (H), X, the number of doses. For survival time, this PubChem deposit counts one and a half times the control or more as active, and values a quarter to a half above the control carry no call in these data; other NCI protocols may use other cut-offs. Some T/C values carry the count of animals alive at the toxicity check (mostly the fifth day); where none is given, no animal had died by that day.

Experimental findings from PubChem BioAssay AID330 (DTP/NCI, 2004) are described below.

On to `Cc1cc(=O)oc2c3c(c4c(c12)OC(C)(C)C=C4)OC(C)(C)C=C3`, for which, under “dose: 240.0 mg/kg/injection, schedule: Q01DX005 (ip), vehicle: saline with Tween-80”, the survivor count is 6 of 6.
Turning to `CC(C)(C)NC1=NCCNC(c2ccccc2)=C1`, the survivor count (dose: 50.0 mg/kg/injection, schedule: Q01DX005 (ip), vehicle: saline) is reported as 1 of 5; the survivor count under setting [1] is recorded as 0 of 5; the survivor count under setting [2] is 0 of 5.
With `C/C=C(/C(=O)O)S(=O)(=O)O.[Ag]`, the survivor count (dose: 40.0 mg/kg/injection, schedule: Q01DX009 (ip), vehicle: saline with Tween-80) was 1 of 6 and the survivor count (dose: 80.0 mg/kg/injection, schedule: Q01DX009 (ip), vehicle: saline with Tween-80) is given as 0 of 6.
With `C[Si](C)(C)OSc1ccccc1[N+](=O)[O-]`, the T/C reads like this: (dose: 25.0 mg/kg/injection, schedule: Q01DX009 (ip), vehicle: Klucel (hydroxypropylcellulose) (HPC)) 132 % of control; (dose: 50.0 mg/kg/injection, schedule: Q01DX009 (ip), vehicle: Klucel (hydroxypropylcellulose) (HPC)) 130 % of control.
For `CN(C)c1ccc(/C=C\C(=O)c2ccc(C(=O)/C=C/c3ccc(N(C)C)cc3)cc2)cc1`, the survivor count was 6 of 6 under setting [3], 6 of 6 under setting [4] and 6 of 6 under setting [5].
Regarding `C/C=C/[P+](c1ccccc1)(c1ccccc1)c1ccccc1`, the T/C (dose: 6.25 mg/kg/injection, schedule: Q01DX009 (ip), vehicle: saline) was 148 % of control and the T/C (dose: 12.5 mg/kg/injection, schedule: Q01DX009 (ip), vehicle: saline) was 138 % of control. In addition, the survivor count is, setting by setting: (dose: 25.0 mg/kg/injection, schedule: Q01DX009 (ip), vehicle: saline) 0 of 6; under setting [6], 0 of 6; under setting [7], 0 of 6; under setting [8], 0 of 6.
For `Cc1cccc(NC(=O)Nc2ccccc2Cl)n1`, for the setting “dose: 400.0 mg/kg/injection, schedule: Q01DX009 (ip), vehicle: Klucel (hydroxypropylcellulose) (HPC)”, the survivor count is recorded as 6 of 6.
`C=C(CC(=O)O)C(=O)O` (tested in a mixture with another compound): the T/C reads like this: under setting [3], 125 % of control; under setting [4], 135 % of control [5 of 6 alive]. Further, the survivor count under setting [5] is recorded as 4 of 6.
With `C=CCCn1ccnc1[N+](=O)[O-]`, the survivor count is 6 of 6 under setting [9] and 0 of 6 under setting [10].
In the case of `CCCCC(C)N(CCNc1cc(OC)cc2cccnc12)CC(C)C` (configuration not stated), the survivor count reads like this: under setting [1], 2 of 5; under setting [2], 0 of 5.
Turning to `COc1cc(CC2c3cc(OC)c(OC)cc3CC[N+]2(C)C)c(Oc2cc(CC3c4cc(OC)c(OC)cc4CC[N+]3(C)C)ccc2OC)cc1OC` (configuration not stated), the survivor count by setting is: (dose: 6.25 mg/kg/injection, schedule: Q04DX003 (ip), vehicle: saline with Tween-80) 0 of 6; (dose: 6.25 mg/kg/injection, schedule: Q04DX003 (ip), vehicle: water) 2 of 6; (dose: 12.5 mg/kg/injection, schedule: Q04DX003 (ip), vehicle: saline with Tween-80) 0 of 6; (dose: 25.0 mg/kg/injection, schedule: Q04DX003 (ip), vehicle: saline with Tween-80) 0 of 6; (dose: 50.0 mg/kg/injection, schedule: Q04DX003 (ip), vehicle: saline with Tween-80) 0 of 6; (dose: 100.0 mg/kg/injection, schedule: Q04DX003 (ip), vehicle: saline with Tween-80) 0 of 6. Moreover, the survivor count is listed as 0 of 6 (dose: 200.0 mg/kg/injection, schedule: Q04DX003 (ip), vehicle: saline with Tween-80) and 0 of 6 (dose: 400.0 mg/kg/injection, schedule: Q04DX003 (ip), vehicle: saline with Tween-80).
As to `CC(=O)Oc1cccc2c1C(=O)c1c(OC(C)=O)cccc1C2=O`, under “dose: 100.0 mg/kg/injection, schedule: Q01DX009 (ip), vehicle: Klucel (hydroxypropylcellulose) (HPC)”, the survivor count is 6 of 6.
With `COc1ccc(C(CC(=O)N(CCCl)CCCl)CC(=O)N(CCCl)CCCl)cc1`, the survivor count (dose: 400.0 mg/kg/injection, schedule: Q01DX001 (ip), vehicle: suspension in saline) is listed as 0 of 6.
Turning to `COc1ccc2nc3cc(Cl)ccc3c(NCCC3CCCN4CCCCC34)c2c1` (configuration not stated), the survivor count by setting is: (dose: 50.0 mg/kg/injection, schedule: Q01DX005 (ip), vehicle: distilled water + Tween-80) 5 of 6; (dose: 100.0 mg/kg/injection, schedule: Q01DX005 (ip), vehicle: distilled water + Tween-80) 0 of 6; (dose: 200.0 mg/kg/injection, schedule: Q01DX005 (ip), vehicle: distilled water + Tween-80) 0 of 6.
As for `CCN(CC)Cc1cc(Nc2ccnc3cc(N(C)C)ccc23)ccc1O`, the survivor count under setting [6] was 5 of 6, the survivor count under setting [7] is 0 of 6 and the survivor count under setting [8] is listed as 0 of 6.
Turning to `CN(C)CCCNc1cccc2c1C(=O)c1cccc(NCCCN(C)C)c1C2=O`, the survivor count reads like this: (dose: 100.0 mg/kg/injection, schedule: Q01DX005 (ip), vehicle: water) 2 of 3; under setting [9], 3 of 6; (dose: 120.0 mg/kg/injection, schedule: Q01DX009 (ip), vehicle: saline) 6 of 6; (dose: 200.0 mg/kg/injection, schedule: Q01DX005 (ip), vehicle: water) 0 of 6; under setting [10], 0 of 6; (dose: 400.0 mg/kg/injection, schedule: Q01DX009 (ip), vehicle: water) 0 of 6.
As for `CC(CO)CCC1OC2CC3C4CC=C5CC(O)CCC5(C)C4CCC3(C)C2C1C` (configuration not stated), under “dose: 18.0 mg/kg/injection, schedule: Q01DX005 (ip), vehicle: Klucel (hydroxypropylcellulose) (HPC)”, the survivor count was 6 of 6.
In the case of `CC(=O)Nc1nc(Cl)c2ncn(C3CC(OC(=O)c4ccc(C)cc4)C(COC(=O)c4ccc(C)cc4)O3)c2n1` (configuration not stated), where the note is “dose: 50.0 mg/kg/injection, schedule: Q01DX005 (ip), vehicle: Klucel (hydroxypropylcellulose) (HPC)”, the survivor count was 6 of 6.
As for `C=C1C(=O)OC2/C=C(\C)C3OC3/C=C(/C(=O)OC)C(O)C(OC(=O)C3(C)OC3C)C12` (configuration not stated), the T/C (dose: 12.0 mg/kg/injection, schedule: Q01DX009 (ip), vehicle: Klucel (hydroxypropylcellulose) (HPC)) was 128 % of control.
`CCCCOP(=O)(OCCCC)C(CC(=O)N(CCCC)CCCC)C(=O)N(CCCC)CCCC` (configuration not stated): the survivor count (dose: 200.0 mg/kg/injection, schedule: Q01DX005 (ip), vehicle: saline with Tween-80) is on record as 0 of 5.
Take `CP1(=S)C/C(=N\NC(N)=S)C2CCCCC21` (configuration not stated): the survivor count is, setting by setting: (dose: 50.0 mg/kg/injection, schedule: Q01DX001 (ip), vehicle: Klucel (hydroxypropylcellulose) (HPC)) 0 of 3; (dose: 100.0 mg/kg/injection, schedule: Q01DX001 (ip), vehicle: Klucel (hydroxypropylcellulose) (HPC)) 0 of 3; (dose: 200.0 mg/kg/injection, schedule: Q01DX001 (ip), vehicle: Klucel (hydroxypropylcellulose) (HPC)) 0 of 3.
Consider `COc1ccc2[nH]c3c(C)c4cc[n+](C)c(C)c4cc3c2c1`, for which, under “dose: 80.0 mg/kg/injection, schedule: Q04DX002 (ip), vehicle: water”, the T/C was 130 % of control. For the same compound, the survivor count (dose: 160.0 mg/kg/injection, schedule: Q04DX002 (ip), vehicle: water) is recorded as 2 of 6.
With `COc1cc(OC)c(C(=O)CCl)c(O)c1Cl`, the T/C under setting [3] was 127 % of control; the T/C (dose: 100.0 mg/kg/injection, schedule: Q01DX009 (ip), vehicle: saline with Tween-80, evaluated on day 20) is 140 % of control; the T/C (dose: 100.0 mg/kg/injection, schedule: Q01DX009 (ip), vehicle: saline with Tween-80, evaluated on day 30) is 130 % of control. Further, under “dose: 150.0 mg/kg/injection, schedule: Q01DX009 (ip), vehicle: saline with Tween-80”, the survivor count is 3 of 6.
As for `CCN=NNc1ccc(C)cc1`, the T/C runs as follows: under setting [3], 125 % of control; under setting [4], 130 % of control [5 of 6 alive].
